# In article PMC12040169 (PLOS Biology, 2025):
# This is one part of the list.
# Test system: T1, CTL2-GFP (C. trachomatis L2/434/Bu, GFP-expressing)
# T1 construct: L2/434/Bu, GFP-expressing
# Design: species or system HeLa; Intracellular C. trachomatis growth in HeLa cells, bulk GFP fluorescence relative to DMSO
# Details: bulk GFP, single well; 28.5 h, 10 µM; inhibitor
row,SMILES,% of control remaining [%]
1,CCn1cc(C(=O)N2CCCCC2c2nc3cc(C)ccc3[nH]2)cn1 (stereo not drawn) [CBK283869],115.731
2,NC(CCCCNC(=O)c1ccccc1)C(=O)O (stereo not drawn) [CBK261087],98.0439
3,Nc1ncc(-c2ccccc2CO)nc1NC1CCOCC1 [CBK063799],176.819
4,NC(=O)c1c(F)cccc1-c1cc(NCCO)nc2[nH]ccc12 [CBK306689],114.672
5,CCOc1ccc(C2(C)C(=O)N(CN3CCOCC3)C(=O)N2CN2CCOCC2)cc1 (stereo not drawn) [CBK261359],103.639
6,COc1cc([C@@]23CCC(=O)C[C@@H]2N(C)CC3)ccc1OCc1ccccc1 [CBK049727],53.7124
7,Cc1ccc(C)c(N2CCN(S(=O)(=O)c3ccc(-c4ccccc4)cc3)CC2)c1 [CBK100692],121.804
8,O=C(CCC(F)(F)F)NCc1csc(-c2ccccc2)n1 [CBK092342],126.213
9,O=C(CCCn1nnc2ccccc2c1=O)NCc1cccc(Cl)c1 [CBK294446],147.238
10,Cc1ccccc1CN1CCN(CC2CC3C=CC2C3)CC1 (stereo not drawn) [CBK263402],100
11,O=C(Nc1cccc(N2CCNCC2)c1)c1cccnc1 [CBK029414T],77.5059
12,O=S(=O)(Nc1ccc(-c2nc3cccnc3s2)cc1)c1ccccc1 [CBK287547],130.224
13,COC(=O)c1c(NC(=O)COc2ccccc2C(C)C)sc2c1CCCC2 [CBK266722],168.526
14,COc1cc(S(=O)(=O)NCc2ccc3c(c2)OCO3)c(OC)cc1Cl [CBK264972],100
15,CN1C(=O)CC2(C1=O)C(=O)N(C)c1ccc(F)cc12 (stereo not drawn) [CBK075290],104.267
16,CSCCOc1nccnc1N1CCCC1 [CBK115757],97.7867
17,O=C(NCCc1ccc(Cl)cc1)C1CCN(C(=O)CCc2ccccc2F)C1 (stereo not drawn) [CBK285931],118.987
18,COC(=O)[C@H]1CCc2ccccc2N1C(=O)C1CC1 [CBK285518],132.261
19,Cc1nc(CN(C)C2CCN(Cc3ccc4c(c3)CCC4)C2)no1 (stereo not drawn) [CBK304052],140.086
20,CN(CC(=O)Nc1ccccc1C(N)=O)S(=O)(=O)c1ccc(Br)cc1 [CBK268648],85.9259
21,Cc1cc(COc2nccc(C(F)(F)F)n2)no1 [CBK115800],108.89
22,CCc1nc2c(N3CCCn4nc(C(O)C5CC5)cc4C3)ncnc2o1 (stereo not drawn) [CBK307543],144.571
23,CN1CCc2nc(SCC(=O)c3ccc(-c4ccccc4)cc3)c(C#N)c(-c3cccs3)c2C1 [CBK267447],175.071
24,O=C(c1ccco1)N1C2CCC1Cn1c(nc3ccccc3c1=O)C2 (stereo not drawn) [CBK284452],150.078
25,CNS(=O)(=O)CCNC(=O)N1CCCN(Cc2ccc(F)cc2)CC1 [CBK304658],129.6
26,CC(=O)Nc1ccc(NC(=O)CN(C2CCCCC2)S(C)(=O)=O)cc1 [CBK266755],148.308

row,SMILES,% of control remaining [%]
1,Cc1ccc(-c2nc3ccccc3[nH]2)cc1NC(=O)CCCc1ccccc1 [CBK265789],148.518
2,COc1ccc(-c2cc(C(=O)NCC3CCNCC3)cnc2-c2ccc(Cl)cc2)cn1 [CBK036700],112.242
3,CCOc1ccsc1C(=O)Nc1c(OC)cc(F)cc1OC1CCNCC1 [CBK050292T],121.808
4,COC(=O)[C@@H]1CN(C(=O)Nc2ccccc2)CCN1S(C)(=O)=O [CBK289611],107.782
5,CN1CCN(S(=O)(=O)c2ccc(F)cc2)CC1 [CBK050491],106.659
6,CCS(=O)(=O)N1CCN(C(=O)c2ccc3nc(C)c(N(CCOC)Cc4ccc(OC)cc4)n3c2)CC1 [CBK146153],185.371
7,Cc1ccc(C(=O)C(C)OC(=O)c2cc(-c3ccccc3)nc3ccccc23)cc1 (stereo not drawn) [CBK264067],96.583
8,COc1ccc(CN2CCCC(c3nccnc3-c3cccc(NC(C)=O)c3)C2)cc1 (stereo not drawn) [CBK286135],104.636
9,COc1ccc(C(=O)c2ccc(N3CCN(C4CC(=O)NC4=O)CC3)cc2)cc1F (stereo not drawn) [CBK268909],156.328
10,CCSC1CCC(N(C)CC(=O)NCc2ccco2)C1 (stereo not drawn) [CBK304823],113.448
11,CCNC(=O)N1CC2(CCN(CCC(N)=O)CC2)c2ccccc21 [CBK144598T],103.482
12,COc1ccc(Nc2cc(-c3cc(OC)c(OC)c(OC)c3)ncn2)c(OC)c1 [CBK090759],111.885
13,O=S(=O)(c1ccccc1)c1cncc(N2CCNCC2)n1 [CBK051078C],114.044
14,O=C(NC1(CN2CCCCC2)CCCCC1)NS(=O)(=O)c1ccc(Cl)cc1 [CBK022858],147.416
15,CCC(CCO)CNc1ncnc2ccc(S(C)(=O)=O)cc12 (stereo not drawn) [CBK305157],126.624
16,COC(=O)c1cc(C)sc1NC(=S)Nc1ccccc1[N+](=O)[O-] [CBK267047],158.404
17,Cc1cc(NC(=O)CC2CC2)c2ccccc2n1 [CBK116257],98.2177
18,CC(=O)c1ccc(S(=O)(=O)N2CCCCC2CNC(=O)c2ccco2)cc1 (stereo not drawn) [CBK051472],181.388
19,COc1nccnc1N1CCN(CC(N)=O)CC1 [CBK084219],114.12
20,NC(=O)CSc1nnc(-c2ccncc2)[nH]1 [CBK026179],131.204
21,Cc1ccc(CN2C[C@@H](N)[C@H](c3cn(C)c4cnccc34)C2)o1 [CBK285180],121.889
22,CC(C)(C)c1ccc(/C=C/C(=O)n2cccn2)cc1 [CBK263645],132.902
23,Cc1[nH]c2ccccc2c1C(=O)CSc1n[nH]c(N)n1 [CBK268056],121.491
24,Nc1cccc(-c2cc(Nc3ccc(C4CCCCC4)cc3)ncn2)c1 [CBK091191],145.638
25,OC1CCC(Nc2nc(-c3ccccc3)cn3ccnc23)CC1 (stereo not drawn) [CBK037329],165.813

# Part of the list above in a different format:
row	SMILES	% of control remaining [%]
22	CC(C)(C)c1ccc(/C=C/C(=O)n2cccn2)cc1 [CBK263645]	132.902
23	Cc1[nH]c2ccccc2c1C(=O)CSc1n[nH]c(N)n1 [CBK268056]	121.491
24	Nc1cccc(-c2cc(Nc3ccc(C4CCCCC4)cc3)ncn2)c1 [CBK091191]	145.638
25	OC1CCC(Nc2nc(-c3ccccc3)cn3ccnc23)CC1 (stereo not drawn) [CBK037329]	165.813
